{
  "sequences": {"note": "Sequences of proteins named here, by UniProt entry; tags and fusion partners are left off. A change or cut given only in a name is not applied to a line headed by its entry.", "UniProt Q8N960": "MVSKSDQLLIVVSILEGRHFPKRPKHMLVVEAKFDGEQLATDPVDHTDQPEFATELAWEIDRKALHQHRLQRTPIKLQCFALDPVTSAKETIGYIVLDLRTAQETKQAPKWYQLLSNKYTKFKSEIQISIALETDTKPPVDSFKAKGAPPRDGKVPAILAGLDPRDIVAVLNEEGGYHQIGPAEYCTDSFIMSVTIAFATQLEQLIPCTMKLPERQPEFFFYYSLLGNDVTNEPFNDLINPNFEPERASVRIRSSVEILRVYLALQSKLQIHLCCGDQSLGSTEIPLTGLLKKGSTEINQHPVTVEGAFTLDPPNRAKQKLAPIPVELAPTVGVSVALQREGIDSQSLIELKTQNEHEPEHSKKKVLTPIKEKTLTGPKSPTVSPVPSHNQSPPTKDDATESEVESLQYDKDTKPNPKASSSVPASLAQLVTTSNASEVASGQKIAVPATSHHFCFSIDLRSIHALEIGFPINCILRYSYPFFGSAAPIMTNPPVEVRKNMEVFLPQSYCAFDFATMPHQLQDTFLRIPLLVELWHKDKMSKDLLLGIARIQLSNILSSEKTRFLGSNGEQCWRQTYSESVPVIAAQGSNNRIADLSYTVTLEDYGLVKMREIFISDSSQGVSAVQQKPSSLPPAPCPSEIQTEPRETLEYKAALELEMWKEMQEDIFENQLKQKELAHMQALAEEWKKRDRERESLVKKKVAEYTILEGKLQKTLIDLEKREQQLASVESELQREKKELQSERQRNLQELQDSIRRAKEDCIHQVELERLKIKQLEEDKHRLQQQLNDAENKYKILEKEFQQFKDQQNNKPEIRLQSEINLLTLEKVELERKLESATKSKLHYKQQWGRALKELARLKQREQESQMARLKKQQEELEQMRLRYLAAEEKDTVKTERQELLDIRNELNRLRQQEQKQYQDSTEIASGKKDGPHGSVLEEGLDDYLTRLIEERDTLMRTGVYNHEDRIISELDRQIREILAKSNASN"},
  "source": "paper PMC5990496",
  "biological_target": "tagged CEP120 with C2B deletion (human) (UniProt Q8N960)",
  "assay": "co-IP; overexpressed, tagged versions of centrobin and CEP120, from cell extracts, at 4°C; which protein was precipitated is not told",
  "note": "Results are given in words; binding and its absence hold for the method and conditions named. Binding seen in cells or lysates may run through a third protein. A result given as binding can be weak or reduced; the word gives no strength. Where a sequence is shown, tags or fusion partners need not be part of it.",
  "data": [
    {"binder": "tagged centrobin (overexpressed, for co-immunoprecipitation) (protein, UniProt Q8N137 1-903) MATSADSPSSPLGAEDLLSDSSEPPGLNQVSSEVTSQLYASLRLSRQAEATARAQLYLPSTSPPHEGLDGFAQELSRSLSVGLEKNLKKKDGSKHIFEMESVRGQLQTMLQTSRDTAYRDPLIPGAGSERREEDSFDSDSTATLLNTRPLQDLSPSSSAQALEELFPRYTSLRPGPPLNPPDFQGLRDALDSEHTRRKHCERHIQSLQTRVLELQQQLAVAVAADRKKDTMIEQLDKTLARVVEGWNRHEAERTEVLRGLQEEHQAAELTRSKQQETVTRLEQSLSEAMEALNREQESARLQQRERETLEEERQALTLRLEAEQQRCCVLQEERDAARAGQLSEHRELETLRAALEEERQTWAQQEHQLKEHYQALQEESQAQLEREKEKSQREAQAAWETQHQLALVQSEVRRLEGELDTARRERDALQLEMSLVQARYESQRIQLESELAVQLEQRVTERLAQAQESSLRQAASLREHHRKQLQDLSGQHQQELASQLAQFKVEMAEREERQQQVAEDYELRLAREQARVCELQSGNQQLEEQRVELVERLQAMLQAHWDEANQLLSTTLPPPNPPAPPAGPSSPGPQEPEKEERRVWTMPPMAVALKPVLQQSREARDELPGAPPVLCSSSSDLSLLLGPSFQSQHSFQPLEPKPDLTSSTAGAFSALGAFHPDHRAERPFPEEDPGPDGEGLLKQGLPPAQLEGLKNFLHQLLETVPQNNENPSVDLLPPKSGPLTVPSWEEAPQVPRIPPPVHKTKVPLAMASSLFRVPEPPSSHSQGSGPSSGSPERGGDGLTFPRQLMEVSQLLRLYQARGWGALPAEDLLLYLKRLEHSGTDGRGDNVPRRNTDSRLGEIPRKEIPSQAVPRRLATAPKTEKPPARKKSGHPAPSSMRSRGGVWR", "values": [
      {"measurement": "binding", "value": "binds"}
    ]}
  ]
}
